# Measured data: PubChem BioAssay AID1224830 (NIAID, 2016)
# Screen: 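Host factors that control LPS-induced TNF expression in human macrophages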 (primary screen)
# Cells: human THP-1 monocytic leukaemia cells, TNF dual-luciferase reporter clone, PMA-differentiated to macrophage-like cells
# Reagents: siRNA pool against human genes, 50 nM
# Timing: LPS for 4 h, given about 3 days after siRNA transfection
# Challenge: bacterial LPS (TLR4 ligand), 10 ng/ml
# Measurement: 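Ratio of firefly to renilla light, scaled to the plate median and expressed as a robust z-score per replicate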
# Direction: TNF reporter robust z-score: higher = stronger TNF reporter response to LPS
# Call rule: 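a well is active when its z-score exceeds 2.8 or falls below -1.5; control wells carry no call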
# The deposit covers about 18,000 reagents; shown is a part drawn at random. About 2,900 of them (16%) count as active. 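Calls are made per well; low scores hint the gene aids the LPS response, high scores that it dampens it.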 Repeated entries: four replicate wells of each siRNA pool.
target,TNF reporter robust z-score,call
TMEM94 (transmembrane protein 94),-1.51,active
TMEM94 (transmembrane protein 94),-0.66,inactive
TMEM94 (transmembrane protein 94),-1.22,inactive
TMEM94 (transmembrane protein 94),-0.57,inactive
RPL36 (ribosomal protein L36),-0.15,inactive
RPL36 (ribosomal protein L36),-0.37,inactive
RPL36 (ribosomal protein L36),-1.21,inactive
RPL36 (ribosomal protein L36),-0.43,inactive
"LMAN1L (lectin, mannose binding 1 like)",-1.09,inactive
"LMAN1L (lectin, mannose binding 1 like)",-0.72,inactive
"LMAN1L (lectin, mannose binding 1 like)",-1.44,inactive
"LMAN1L (lectin, mannose binding 1 like)",-0.81,inactive
ARMC10 (armadillo repeat containing 10),3.68,active
ARMC10 (armadillo repeat containing 10),2.94,active
ARMC10 (armadillo repeat containing 10),2.05,inactive
ARMC10 (armadillo repeat containing 10),1.25,inactive
ZNF655 (zinc finger protein 655),-1.61,active
ZNF655 (zinc finger protein 655),-1.66,active
ZNF655 (zinc finger protein 655),-1.52,active
ZNF655 (zinc finger protein 655),-1.59,active
RNF19B (ring finger protein 19B),0.21,inactive
RNF19B (ring finger protein 19B),0.27,inactive
RNF19B (ring finger protein 19B),-0.07,inactive
RNF19B (ring finger protein 19B),1.76,inactive
BTD (biotinidase),-1.57,active
BTD (biotinidase),-0.26,inactive
BTD (biotinidase),-0.28,inactive
BTD (biotinidase),-0.55,inactive
NOP56 (NOP56 ribonucleoprotein),1.44,inactive
NOP56 (NOP56 ribonucleoprotein),1.07,inactive
NOP56 (NOP56 ribonucleoprotein),0.92,inactive
NOP56 (NOP56 ribonucleoprotein),1.59,inactive

4 entries already listed, arranged by “TNF reporter robust z-score”, ascending:
target,TNF reporter robust z-score,call
BTD (biotinidase),-0.55,inactive
NOP56 (NOP56 ribonucleoprotein),0.92,inactive
NOP56 (NOP56 ribonucleoprotein),1.07,inactive
NOP56 (NOP56 ribonucleoprotein),1.44,inactive

The results go on:
target,TNF reporter robust z-score,call
SSUH2 (ssu-2 homolog),0.22,inactive
SSUH2 (ssu-2 homolog),-0.58,inactive
SSUH2 (ssu-2 homolog),0.15,inactive
SSUH2 (ssu-2 homolog),1.57,inactive
RBM14 (RNA binding motif protein 14),-0.28,inactive
RBM14 (RNA binding motif protein 14),0.09,inactive
RBM14 (RNA binding motif protein 14),-0.33,inactive
RBM14 (RNA binding motif protein 14),-0.59,inactive
RIOK1 (RIO kinase 1),-1.43,inactive
RIOK1 (RIO kinase 1),-0.04,inactive
RIOK1 (RIO kinase 1),0.41,inactive
RIOK1 (RIO kinase 1),0.17,inactive
L3MBTL2 (L3MBTL histone methyl-lysine binding protein 2),-0.39,inactive
L3MBTL2 (L3MBTL histone methyl-lysine binding protein 2),2.33,inactive
L3MBTL2 (L3MBTL histone methyl-lysine binding protein 2),0.38,inactive
L3MBTL2 (L3MBTL histone methyl-lysine binding protein 2),2.54,inactive
